# Assay results: the supplement of paper PMC8728848
# This is one part of the list.
# Assays:
# Assay in all cases: glycan array binding signal (z-score within array); higher = stronger binding
# Conditions in all cases: glycan notation: IUPAC condensed, linker removed
# [1] = biological target: Gal(b1-3)GlcNAc(b1-2)Man(a1-3)[Gal(b1-3)GlcNAc(b1-2)Man(a1-6)]Man(b1-4)GlcNAc(b1-4)GlcNAc
# Procedure, shortened: (§1)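 Arrays were curated from the Consortium for Functional Glycomics database, 3228 in total, and kept only where the protein sequence was available. Binding is expressed as a within-array Z-score. This score was averaged across arrays of the same protein sequence at different concentrations or buffers and across linkers, and negative values can be read as non-binding.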
# [2] = biological target: Gal(b1-3)GlcNAc(b1-2)Man(a1-3)[Gal(b1-3)GlcNAc(b1-2)Man(a1-6)]Man(b1-4)GlcNAc(b1-4)[Fuc(a1-6)]GlcNAc
# Procedure, shortened: as §1
# [3] = biological target: Gal(b1-3)GlcNAc(b1-2)Man(a1-3)[GlcNAc(b1-4)][Gal(b1-3)GlcNAc(b1-2)Man(a1-6)]Man(b1-4)GlcNAc(b1-4)GlcNAc
# Procedure, shortened: as §1
# [4] = biological target: Gal(b1-3)GlcNAc(b1-2)[Gal(b1-3)GlcNAc(b1-6)]Man(a1-6)[Gal(b1-3)GlcNAc(b1-2)Man(a1-3)]Man(b1-4)GlcNAc(b1-4)GlcNAc
# Procedure, shortened: as §1
# [5] = biological target: Gal(b1-3)GlcNAc(b1-3)Gal(b1-3)GlcNAc
# Procedure, shortened: as §1
# [6] = biological target: Gal(b1-3)GlcNAc(b1-3)Gal(b1-4)Glc
# Procedure, shortened: as §1
# [7] = biological target: Gal(b1-3)GlcNAc(b1-3)Gal(b1-4)GlcNAc
# Procedure, shortened: as §1
# [8] = biological target: Gal(b1-3)GlcNAc(b1-3)Gal(b1-4)GlcNAc(b1-2)Man(a1-3)[Gal(b1-3)GlcNAc(b1-3)Gal(b1-4)GlcNAc(b1-2)Man(a1-6)]Man(b1-4)GlcNAc(b1-4)GlcNAc
# Procedure, shortened: as §1
# [9] = biological target: Gal(b1-3)GlcNAc(b1-3)Gal(b1-4)GlcNAc(b1-2)[Gal(b1-3)GlcNAc(b1-3)Gal(b1-4)GlcNAc(b1-6)]Man(a1-6)[Gal(b1-3)GlcNAc(b1-3)Gal(b1-4)GlcNAc(b1-2)Man(a1-3)]Man(b1-4)GlcNAc(b1-4)[Fuc(a1-6)]GlcNAc
# Procedure, shortened: as §1
# [10] = biological target: Gal(b1-3)GlcNAc(b1-3)Gal(b1-4)GlcNAc(b1-3)Gal(b1-4)GlcNAc(b1-2)[Gal(b1-3)GlcNAc(b1-3)Gal(b1-4)GlcNAc(b1-3)Gal(b1-4)GlcNAc(b1-6)]Man(a1-6)[Gal(b1-3)GlcNAc(b1-3)Gal(b1-4)GlcNAc(b1-3)Gal(b1-4)GlcNAc(b1-2)Man(a1-3)]Man(b1-4)GlcNAc(b1-4)[Fuc(a1-6)]GlcNAc
# Procedure, shortened: as §1
# [11] = biological target: Gal(b1-3)GlcNAc(b1-3)Gal(b1-4)GlcNAc(b1-6)[Gal(b1-3)GlcNAc(b1-3)]Gal(b1-4)Glc
# Procedure, shortened: as §1
# [12] = biological target: Gal(b1-3)GlcNAc(b1-3)Gal(b1-4)[Fuc(a1-3)]GlcNAc
# Procedure, shortened: as §1
# [13] = biological target: Gal(b1-3)GlcNAc(b1-3)Gal(b1-4)[Fuc(a1-3)]GlcNAc(b1-6)[Gal(b1-3)GlcNAc(b1-3)]Gal(b1-4)Glc
# Procedure, shortened: as §1
# [14] = biological target: Gal(b1-3)GlcNAc(b1-3)GalNAc
# Procedure, shortened: as §1
# [15] = biological target: Gal(b1-3)GlcNAc(b1-6)Gal(b1-4)GlcNAc
# Procedure, shortened: as §1
# [16] = biological target: Gal(b1-3)GlcNAc(b1-6)GalNAc
# Procedure, shortened: as §1
# [17] = biological target: Gal(b1-3)GlcNAc(b1-6)[Gal(b1-3)]GalNAc
# Procedure, shortened: as §1
# Gal(b1-3)GlcNAc6S = biological target: Gal(b1-3)GlcNAc6S
# Procedure, shortened: as §1
# [18] = biological target: Gal(b1-3)[Fuc(a1-4)]GlcNAc
# Procedure, shortened: as §1
# [19] = biological target: Gal(b1-3)[Fuc(a1-4)]GlcNAc(b1-2)Man
# Procedure, shortened: as §1
# [20] = biological target: Gal(b1-3)[Fuc(a1-4)]GlcNAc(b1-2)Man(a1-3)[Gal(b1-3)[Fuc(a1-4)]GlcNAc(b1-2)Man(a1-6)]Man(b1-4)GlcNAc(b1-4)[Fuc(a1-6)]GlcNAc
# Procedure, shortened: as §1
# [21] = biological target: Gal(b1-3)[Fuc(a1-4)]GlcNAc(b1-3)Gal(b1-3)[Fuc(a1-4)]GlcNAc
# Procedure, shortened: as §1
# [22] = biological target: Gal(b1-3)[Fuc(a1-4)]GlcNAc(b1-3)Gal(b1-4)[Fuc(a1-3)]GlcNAc
# Procedure, shortened: as §1
# [23] = biological target: Gal(b1-3)[Fuc(a1-4)]GlcNAc(b1-6)GalNAc
# Procedure, shortened: as §1
# [24] = biological target: Gal(b1-3)[GlcNAc(b1-6)]GalNAc
# Procedure, shortened: as §1
# [25] = biological target: Gal(b1-3)[Neu5Ac(a2-6)]GalNAc
# Procedure, shortened: as §1
# [26] = biological target: Gal(b1-3)[Neu5Ac(a2-6)]GlcNAc(b1-4)Gal(b1-4)Glc
# Procedure, shortened: as §1
# [27] = biological target: Gal(b1-3)[Neu5Ac(b2-6)]GalNAc
# Procedure, shortened: as §1
# Gal(b1-4)Gal = biological target: Gal(b1-4)Gal
# Procedure, shortened: as §1
# [28] = biological target: Gal(b1-4)GalNAc(a1-3)[Fuc(a1-2)]Gal(b1-4)GlcNAc
# Procedure, shortened: as §1
# [29] = biological target: Gal(b1-4)GalNAc(b1-3)[Fuc(a1-2)]Gal(b1-4)GlcNAc
# Procedure, shortened: as §1
# Gal(b1-4)Glc = biological target: Gal(b1-4)Glc
# Procedure, shortened: as §1
# Gal(b1-4)Glc6S = biological target: Gal(b1-4)Glc6S
# Procedure, shortened: as §1
# Gal(b1-4)GlcNAc = biological target: Gal(b1-4)GlcNAc
# Procedure, shortened: as §1
# [30] = biological target: Gal(b1-4)GlcNAc(a1-6)Gal(b1-4)GlcNAc
# Procedure, shortened: as §1
# Gal(b1-4)GlcNAc(b1-2)Man = biological target: Gal(b1-4)GlcNAc(b1-2)Man
# Procedure, shortened: as §1
# [31] = biological target: Gal(b1-4)GlcNAc(b1-2)Man(a1-3)Man(b1-4)GlcNAc(b1-4)GlcNAc
# Procedure, shortened: as §1
# [32] = biological target: Gal(b1-4)GlcNAc(b1-2)Man(a1-3)[Gal(b1-4)GlcNAc(b1-2)Man(a1-6)]Man(b1-4)GlcNAc(b1-4)GlcNAc
# Procedure, shortened: as §1
# [33] = biological target: Gal(b1-4)GlcNAc(b1-2)Man(a1-3)[Gal(b1-4)GlcNAc(b1-2)Man(a1-6)]Man(b1-4)GlcNAc(b1-4)[Fuc(a1-6)]GlcNAc
# Procedure, shortened: as §1
# [34] = biological target: Gal(b1-4)GlcNAc(b1-2)Man(a1-3)[Gal(b1-4)GlcNAc(b1-2)Man(a1-6)][Gal(b1-4)GlcNAc(b1-4)]Man(b1-4)GlcNAc(b1-4)[Fuc(a1-6)]GlcNAc
# Procedure, shortened: as §1
# [35] = biological target: Gal(b1-4)GlcNAc(b1-2)Man(a1-3)[Gal(b1-4)GlcNAc(b1-2)Man(a1-6)][GlcNAc(b1-4)]Man(b1-4)GlcNAc(b1-4)[Fuc(a1-6)]GlcNAc
# Procedure, shortened: as §1
# [36] = biological target: Gal(b1-4)GlcNAc(b1-2)Man(a1-3)[GlcNAc(b1-2)Man(a1-6)]Man(b1-4)GlcNAc(b1-4)GlcNAc
# Procedure, shortened: as §1
# [37] = biological target: Gal(b1-4)GlcNAc(b1-2)Man(a1-3)[GlcNAc(b1-4)][Gal(b1-4)GlcNAc(b1-2)Man(a1-6)]Man(b1-4)GlcNAc(b1-4)GlcNAc
# Procedure, shortened: as §1
# [38] = biological target: Gal(b1-4)GlcNAc(b1-2)Man(a1-3)[Man(a1-6)]Man(b1-4)GlcNAc(b1-4)GlcNAc
# Procedure, shortened: as §1
# [39] = biological target: Gal(b1-4)GlcNAc(b1-2)Man(a1-6)Man(b1-4)GlcNAc(b1-4)GlcNAc
# Procedure, shortened: as §1
binder,measurement,setting,value
"XTP3-B-MRH2 (Homo sapiens), Q96DZ1 (protein) EFLSGSYCFRGGVGWWKYEFCYGKHVHQYHEDKDSGKTSVVVGTWNQEEHIEWAKKNTARAYHLQDDGTQTVRMVSHFYGNGDICDITDKPRQVTVKLKCKESDSPHAVTVYMLEPHSCQYILGVESPVICKILDTA",glycan array binding signal (z-score),[1],-0.334
same,glycan array binding signal (z-score),[2],-0.441
same,glycan array binding signal (z-score),[3],-0.455
same,glycan array binding signal (z-score),[4],-0.907
same,glycan array binding signal (z-score),[5],0.964
same,glycan array binding signal (z-score),[6],0.052
same,glycan array binding signal (z-score),[7],1.54
same,glycan array binding signal (z-score),[8],-0.105
same,glycan array binding signal (z-score),[9],-0.138
same,glycan array binding signal (z-score),[10],-0.411
same,glycan array binding signal (z-score),[11],2.09
same,glycan array binding signal (z-score),[12],-0.375
same,glycan array binding signal (z-score),[13],-0.339
same,glycan array binding signal (z-score),[14],0.996
same,glycan array binding signal (z-score),[15],-0.034
same,glycan array binding signal (z-score),[16],-0.003
same,glycan array binding signal (z-score),[17],0.812
same,glycan array binding signal (z-score),Gal(b1-3)GlcNAc6S,-0.844
same,glycan array binding signal (z-score),[18],-0.521
same,glycan array binding signal (z-score),[19],-1.08
same,glycan array binding signal (z-score),[20],1.37
same,glycan array binding signal (z-score),[21],3.38
same,glycan array binding signal (z-score),[22],0.827
same,glycan array binding signal (z-score),[23],-0.084
same,glycan array binding signal (z-score),[24],-0.193
same,glycan array binding signal (z-score),[25],0.695
same,glycan array binding signal (z-score),[26],-0.183
same,glycan array binding signal (z-score),[27],-1.04
same,glycan array binding signal (z-score),Gal(b1-4)Gal,-0.14
same,glycan array binding signal (z-score),[28],-0.932
same,glycan array binding signal (z-score),[29],-0.814
same,glycan array binding signal (z-score),Gal(b1-4)Glc,-0.594
same,glycan array binding signal (z-score),Gal(b1-4)Glc6S,-0.805
same,glycan array binding signal (z-score),Gal(b1-4)GlcNAc,0.365
same,glycan array binding signal (z-score),[30],-0.34
same,glycan array binding signal (z-score),Gal(b1-4)GlcNAc(b1-2)Man,0.283
same,glycan array binding signal (z-score),[31],0.539
same,glycan array binding signal (z-score),[32],1.04
same,glycan array binding signal (z-score),[33],-0.773
same,glycan array binding signal (z-score),[34],0.353
same,glycan array binding signal (z-score),[35],-0.45
same,glycan array binding signal (z-score),[36],0.26
same,glycan array binding signal (z-score),[37],-0.219
same,glycan array binding signal (z-score),[38],-0.398
same,glycan array binding signal (z-score),[39],-0.196

# Reprinted at random: 2 entries already listed.
binder,measurement,setting,value
"XTP3-B-MRH2 (Homo sapiens), Q96DZ1 (protein) EFLSGSYCFRGGVGWWKYEFCYGKHVHQYHEDKDSGKTSVVVGTWNQEEHIEWAKKNTARAYHLQDDGTQTVRMVSHFYGNGDICDITDKPRQVTVKLKCKESDSPHAVTVYMLEPHSCQYILGVESPVICKILDTA",glycan array binding signal (z-score),[35],-0.45
same,glycan array binding signal (z-score),[27],-1.04
